Laboratory results taken from PubChem BioAssay AID493014 (National Center for Advancing Translational Sciences (NCATS), 2011).
The list shows a part of the results. These are further read-outs of the screen, such as a control signal, another cell line or another target. No call is given for them. Most of these compounds were active or inconclusive in the main read-out, so they are no random draw. Words in brackets tell the shape of the fitted curve; partial curves, single points and poor fits give uncertain potencies.

Assay: qHTS Assay to Find Inhibitors of Chronic Active B-Cell Receptor Signaling
Conditions: ABC-DLBCL IkBa-CBG/CBR reporter, luminescence ratio (green luciferase fused to IkBa over red control in TMD8 lymphoma cells), 4 h
Procedure, shortened: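 Doxycycline induced both beetle luciferases in TMD8 lymphoma cells; IKK-driven degradation limits the IkappaBalpha-fused green signal, while red luminescence normalises for cell number and nonspecific effects. Compounds tested up to 46 uM, 4 hrs.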

[1] = measured here: CBR red luminescence, cell number
[2] = measured here: IkBa-CBG green luminescence

Row | Structure (SMILES) | AC50 [1] | AC50 [2]
1 | COC(=O)[C@H](Cc1ccccc1)NC(=O)Nc1ccc(C)cc1 | 4.11 µM [rising, full curve, poor fit] | 
2 | CC1(C)CC(=O)C(C=Nc2ccccc2)=C(O)C1 | 1.26 µM [rising, full curve, poor fit] | 15.8 µM [falling, partial curve, poor fit]
3 | C=CCc1cc(/C=C2/NC(=O)N(CC)C2=O)cc(OCC)c1OCc1ccc(C(=O)O)cc1 | 29.1 µM [falling, single point] | 
4 | COc1ccc(-c2cc(C3CCN(C(=O)OC(C)(C)C)CC3)[nH]n2)cc1 | 8.91 µM [falling, partial curve, poor fit] | 
5 | O=C(Nc1nnc(SCc2ccccc2Cl)s1)c1cccc([N+](=O)[O-])c1 | 32.6 µM [falling, single point] | 
6 | Cc1c2c(nc3ccccc13)CC(C)(C)CC2=O | 25.1 µM [rising, single point] | 
7 | COc1ccc(C2(C(=O)NC(C)C)CCCC2)cc1OC | 0.259 µM [rising, full curve, poor fit] | 
8 | COc1ccc(Cl)cc1NC(=O)CN(C)Cc1cccs1 | 5.01 µM [rising, full curve] | 
9 | C=CCN1C(=O)C2(OCCCO2)c2cc(CCCC)ccc21 | 22.4 µM [rising, single point] | 
10 | Cc1ccc(O)c(NC(=O)c2cc(-c3cccs3)on2)c1 | 15.8 µM [falling, partial curve, poor fit] | 
11 | CC(C)N(C(C)C)S(=O)(=O)c1ccc(N2CCc3ccccc3C2)nc1 | 12.6 µM [falling, partial curve, poor fit] | 
12 | Nc1c(C(=O)NC2CCCCC2)c2nc3ccccc3nc2n1/N=C/c1ccco1 | 22.4 µM [falling, single point] | 
13 | O=C(Nc1ccccc1C(=O)NCc1cccnc1)c1cccc([N+](=O)[O-])c1 | 15.8 µM [rising, partial curve, poor fit] | 
14 | COc1ccccc1-n1c(=O)oc2ccc(Cl)cc2c1=O | 6.51 µM [falling, partial curve, poor fit] | 
15 | CCC1=NN(C(=O)Cc2ccc(OC)c(OC)c2)C(O)(C(F)(F)F)C1 (centres undefined) | 18.4 µM [rising, single point] | 
16 | O=C(O)/C(=C\c1ccc(-c2ccccc2[N+](=O)[O-])o1)c1ccccc1 | 10 µM [falling, partial curve] | 
17 | Cc1onc(-c2c(Cl)cccc2Cl)c1C(=O)c1c[nH]c(C(=O)NC2CC2)c1 | 5.8 µM [rising, full curve, poor fit] | 
18 | COc1ccc(CN2CSC(=S)N(Cc3ccccc3)C2)cc1 | 31.6 µM [rising, single point] | 35.5 µM [falling, single point]
19 | O=C(CCCN1CCC(O)(c2ccc(Br)cc2)CC1)c1ccc(F)cc1 | 6.51 µM [falling, single point] | 
20 | COCCn1c(SCc2cc(=O)n3cc(C)ccc3n2)nc2ccccc2c1=O | 5.62 µM [rising, full curve, poor fit] | 
21 | C/C(=N/NC(=O)C1CC1(c1ccccc1)c1ccccc1)c1ccco1 (centres undefined) | 29.1 µM [falling, single point] | 32.6 µM [rising, partial curve, poor fit]

Part of the list above in order of length of the SMILES, descending.
Row | Structure (SMILES) | AC50 [1] | AC50 [2]
20 | COCCn1c(SCc2cc(=O)n3cc(C)ccc3n2)nc2ccccc2c1=O | 5.62 µM [rising, full curve, poor fit] | 
18 | COc1ccc(CN2CSC(=S)N(Cc3ccccc3)C2)cc1 | 31.6 µM [rising, single point] | 35.5 µM [falling, single point]
2 | CC1(C)CC(=O)C(C=Nc2ccccc2)=C(O)C1 | 1.26 µM [rising, full curve, poor fit] | 15.8 µM [falling, partial curve, poor fit]

Going on with the list.

Row | Structure (SMILES) | AC50 [1] | AC50 [2]
22 | O=C(CSC1=NCCS1)Nc1nc2c(s1)CCCC2 | 35.5 µM [falling, single point] | 
23 | CN(C)c1ccc(/C=N/NC(=O)CCCO)cc1 | 7.08 µM [falling, full curve] | 
24 | N#C/C(=C/c1cccs1)c1nc2ccccc2[nH]1 | 14.6 µM [falling, partial curve] | 
25 | CSc1ccc(C(c2c(C(=O)O)[nH]c3ccccc23)c2c(C(=O)O)[nH]c3ccccc23)cc1 | 28.2 µM [rising, single point] | 
26 | COc1cc(-c2cc(C(=O)NCc3ccco3)c3ccccc3n2)cc(OC)c1OC | 6.31 µM [falling, partial curve] | 
27 | c1ccc(-c2ccc3[nH]ccc3c2)cc1 | 25.9 µM [rising, single point] | 
28 | O=C(O)CCn1c(O)c(C=C2N=c3ccccc3=N2)sc1=S | 1.58 µM [falling, full curve] | 
29 | COc1ccccc1Nc1cc(C(=O)NCc2cccnc2)c2ccccc2n1 | 15.8 µM [falling, single point] | 
30 | C/C(CCc1ccccc1)=N\NC(=O)c1ccccc1[N+](=O)[O-] | 5.8 µM [falling, partial curve] | 
31 | COC(=O)c1ccc2c(=O)n(Cc3ccc(C(=O)NCCCN4CCOCC4)cc3)c(=S)[nH]c2c1 | 0.794 µM [falling, full curve, poor fit] | 
32 | CN1CCC(=NNC(=O)C(=O)Nc2ccccc2)CC1 | 6.31 µM [falling, partial curve] | 
33 | Cc1cc(C)nc(SCc2nnc(SCC(=O)Nc3nccs3)n2Cc2ccco2)n1 | 20 µM [falling, single point] | 
34 | CC1(C)CC(=O)C(=Cc2cn(CCC#N)nc2-c2ccc(F)cc2)C(=O)C1 | 25.9 µM [rising, single point] | 
35 | Cc1cc(N/N=C/c2ccccc2)nc(N)n1 | 14.1 µM [rising, single point] | 
36 | CCOC(=O)N1CCN(C(=O)c2ccc3c(Cl)c4c(nc3c2)CCCC4)CC1 | 12.6 µM [falling, single point] | 
37 | C[C@@]12CCC3[C@@](CCC4[C@@]3(C)CCC[C@@]4(C)C(=O)Nc3ccc(Cl)cc3)(CC1=O)C2 (some centres undefined) | 18.4 µM [falling, partial curve] | 
38 | FC(F)(F)c1ccnc(Oc2ccc(C3=NCCS3)cc2)c1 | 0.562 µM [rising, full curve] | 
39 | C/C(=N\NC(=O)CCc1ccccc1)C1C(=O)c2ccccc2C1=O | 11.2 µM [falling, single point] | 
40 | Fc1ccc(Cn2nnnc2CN2CCc3ccccc3C2)cc1 | 18.4 µM [falling, partial curve] | 
41 | Cc1ccc(NC(=O)c2cccc(Oc3ccc([N+](=O)[O-])cc3)c2)c(C(=O)O)c1 | 3.55 µM [falling, partial curve] | 
